# From PMC12040169 (PLOS Biology, 2025)
# The list shows a part of the results.
# System: T1, CTL2-GFP (C. trachomatis L2/434/Bu, GFP-expressing)
# T1 construct: L2/434/Bu, GFP-expressing
# Set-up: species or system HeLa; Intracellular C. trachomatis growth in HeLa cells, bulk GFP fluorescence relative to DMSO
# Details: bulk GFP, single well; 28.5 h, 10 µM; inhibitor
row,SMILES,% of control remaining [%]
1,CC(=O)c1ccc(NC(=O)Nc2nnc(CCN3CCCC3)s2)cc1 [CBK174990],92.0867
2,CC(=O)NC(c1ccccn1)C1CCN(Cc2cccc(F)c2)CC1 (centres unmarked) [CBK285461],118.603
3,CCCNC(=O)COc1ccc(CC)cc1 [CBK058199],101.815
4,CS(=O)(=O)Nc1ccc2[nH]ccc2c1 [CBK062728],108.614
5,OC1(c2cccnc2F)CCN(Cc2c(F)cccc2Cl)CC1 [CBK283148],136.07
6,Fc1ccccc1CN(CCCn1ccnc1)Cc1cccnc1 [CBK283099],117.553
7,CC1CCN(Cc2nc3c(c(=O)n(C)c(=O)n3C)n2CCN2CCOCC2)CC1 [CBK269291],139.426
8,CCNC(=O)N1CCN(CCOC(c2ccc(F)cc2)c2ccc(F)cc2)CC1 [CBK024943C],100
9,COc1ccc(Nc2nc(-c3ccc(F)cc3)cs2)c(OC)c1 [CBK131705],105.596
10,CN(c1ccccc1C(N)=O)S(=O)(=O)c1ccc(S(=O)(=O)C(F)F)cc1 [CBK298289],128.861
11,COc1cccc(C(=O)Nc2nc(-c3ccccc3)cs2)c1OC [CBK287697],114.171
12,CC(NC(=O)C1CC(=O)N(Cc2ccccn2)C1)c1ccc(F)cc1 (centres unmarked) [CBK304552],130.209
13,CN(C)CCN1CCN(c2nc(-c3ccc4c(c3)OCO4)cnc2N)CC1 [CBK063495],183.567
14,CC(C)OC(=O)N1CCC(CNc2ncc(-c3ccc(S(C)(=O)=O)cc3)cn2)CC1 [CBK165367],77.4363
15,CSc1nsc(NC(=O)Nc2ccccc2)n1 [CBK027286],63.1802
16,O=C(COc1ccccc1O)NCCN1CCOCC1 [CBK262243C],129.053
17,c1ccc2cc(-c3cncc(NCc4ccncc4)n3)ccc2c1 [CBK037899],77.0923
18,O=C(NC1CCCN(c2cc(-c3ccncc3)n[nH]2)C1)c1ccsc1 (centres unmarked) [CBK288619],118.571
19,O=C(COc1ccccc1)N1CCCC1c1cccc(Cc2ccc(F)cc2)n1 (centres unmarked) [CBK286230],111.179
20,CC1(C)C2CCC1(CS(=O)(=O)N1CCC(C(N)=O)CC1)C(=O)C2 (centres unmarked) [CBK269499],143.461
21,COc1cccc(C2(O)CCC3CN(C(C)=O)CC32)c1 (centres unmarked) [CBK283222],117.672
22,Cc1noc(C)c1NC(=O)CN1CCOCC1 [CBK200381],64.8852
23,c1coc(CNc2cncc(-c3cccs3)n2)c1 [CBK065630],157.657
24,O=C(NCc1ccccc1)c1ccc2[nH]nnc2c1 [CBK200368],111.667
25,O=C(C1CCC1)N1C2CCC1CC(O)(c1ccc(F)cc1)C2 (centres unmarked) [CBK283547],107.531
26,O=S(=O)(c1ccc(F)cc1F)n1ccc2c(N3CCNCC3)nccc21 [CBK059061C],98.2239
27,COc1cccc(NS(=O)(=O)c2cc(CC(=O)O)ccc2OC)c1 [CBK298333],172.112

row,SMILES,% of control remaining [%]
1,Cc1nnc(SCC(=O)Nc2nonc2C)s1 [CBK269227],151.247
2,Cc1ccc(NS(=O)(=O)c2ccc(OCC(=O)N3CCN(C)CC3)c(C)c2)cc1 [CBK267834],86.6747
3,COC1C(O)C(CO)OC1n1cnc2c(=O)[nH]c(N)nc21 (centres unmarked) [CBK201324],157.463
4,FC(F)(F)c1ccnc(Sc2ccncc2)c1 [CBK093793],118.431
5,Cc1cccnc1C(NC(=O)C1CCN(Cc2cccn2C)CC1)c1ccc(Cl)cc1 (centres unmarked) [CBK148174],109.562
6,COc1cc(OC)nc(C(NC(=O)C2CCN(Cc3nccs3)CC2)c2ccc(Cl)cc2)n1 (centres unmarked) [CBK148217],184.553
7,CSCCC(NC(=O)NCCc1ccccc1)c1nnc2ccccn12 (centres unmarked) [CBK304417],134.69
8,CN1C(=O)C(C)(C)Oc2ccc(C(O)c3ccco3)cc21 (centres unmarked) [CBK284469],131.854
9,CCSc1nnc(NC(=O)c2cnc(SC)nc2CC)s1 [CBK291250],161.916
10,CCc1nnc(N/N=C/c2cc(Cl)c(OCc3ccccc3F)c(OC)c2)n1N [CBK278282C],111.771
11,CN1C2CCC1CC(OC(=O)c1cccnc1)C2 (centres unmarked) [CBK026000],122.046
12,CC(=O)Nc1cccc(C(=O)OCC(=O)N2CCCCC2C)c1 (centres unmarked) [CBK305868],143.553
13,CCNC(=O)Nc1nc2cccnc2cc1-c1ccc(OC)c(C)c1 [CBK081241],100
14,c1cnc(N2CCCC2)c(OC2CCCNC2)n1 (centres unmarked) [CBK115283],134.966
15,O=C(O)[C@@H]1CSC(c2ccc(C(F)(F)F)cc2)N1 (some centres unmarked) [CBK286921],127.247
16,COc1cccc(-c2cccc(C3CCCN(C(=O)Cc4c[nH]c5ccccc45)C3)n2)c1 (centres unmarked) [CBK286207],90.0619
17,CCC(=O)N1CCC2(CC1)Nc1ccccc1-n1cccc12 [CBK283488],90.7102
18,Cc1ccc(S(=O)(=O)N2CCOCC2)cc1S(=O)(=O)N1CCOCC1 [CBK261733],102.702
19,O=C(Nc1ccc(F)cc1)c1sccc1NS(=O)(=O)c1cc(F)c(Br)cc1F [CBK004586],92.4438
20,Cn1nc2c(c1C(=O)NCC(C)(C)N1CCCCC1)CCCC2 [CBK281878],130.284
21,CCCc1nc(NC(CCO)c2ccc(C)cc2)c2cnn(C)c2n1 (centres unmarked) [CBK307309],103.127
22,Cc1ccc(-c2nc(C)c(C(=O)Nc3ccc(-n4cncn4)nc3)s2)o1 [CBK297770],126.375
23,Cc1cc(NC(=O)C2CCN(C)CC2)c2ccccc2n1 [CBK122730],130.648
24,Cc1nn(C)cc1C(C)NC(=O)c1ccc2c(c1)ncn2C (centres unmarked) [CBK281732],110.585
25,CN(C)c1ccc(/C=N/NC(=O)CSc2nnc(-c3ccccc3)n2-c2ccccc2)cc1 [CBK262263],100
26,OCCCNc1nccnc1-c1cccnc1 [CBK037277],127.878

# 16 of these compounds, reformatted:
row	SMILES	% of control remaining [%]
7	CSCCC(NC(=O)NCCc1ccccc1)c1nnc2ccccn12 (centres unmarked) [CBK304417]	134.69
8	CN1C(=O)C(C)(C)Oc2ccc(C(O)c3ccco3)cc21 (centres unmarked) [CBK284469]	131.854
9	CCSc1nnc(NC(=O)c2cnc(SC)nc2CC)s1 [CBK291250]	161.916
10	CCc1nnc(N/N=C/c2cc(Cl)c(OCc3ccccc3F)c(OC)c2)n1N [CBK278282C]	111.771
11	CN1C2CCC1CC(OC(=O)c1cccnc1)C2 (centres unmarked) [CBK026000]	122.046
12	CC(=O)Nc1cccc(C(=O)OCC(=O)N2CCCCC2C)c1 (centres unmarked) [CBK305868]	143.553
13	CCNC(=O)Nc1nc2cccnc2cc1-c1ccc(OC)c(C)c1 [CBK081241]	100
14	c1cnc(N2CCCC2)c(OC2CCCNC2)n1 (centres unmarked) [CBK115283]	134.966
15	O=C(O)[C@@H]1CSC(c2ccc(C(F)(F)F)cc2)N1 (some centres unmarked) [CBK286921]	127.247
16	COc1cccc(-c2cccc(C3CCCN(C(=O)Cc4c[nH]c5ccccc45)C3)n2)c1 (centres unmarked) [CBK286207]	90.0619
17	CCC(=O)N1CCC2(CC1)Nc1ccccc1-n1cccc12 [CBK283488]	90.7102
18	Cc1ccc(S(=O)(=O)N2CCOCC2)cc1S(=O)(=O)N1CCOCC1 [CBK261733]	102.702
19	O=C(Nc1ccc(F)cc1)c1sccc1NS(=O)(=O)c1cc(F)c(Br)cc1F [CBK004586]	92.4438
20	Cn1nc2c(c1C(=O)NCC(C)(C)N1CCCCC1)CCCC2 [CBK281878]	130.284
21	CCCc1nc(NC(CCO)c2ccc(C)cc2)c2cnn(C)c2n1 (centres unmarked) [CBK307309]	103.127
22	Cc1ccc(-c2nc(C)c(C(=O)Nc3ccc(-n4cncn4)nc3)s2)o1 [CBK297770]	126.375
